Reference: the supplement of paper PMC10849652
The list shows a part of the results.

Chains of the proteins cited; added tags and fusions are not shown. Lines headed by an entry give the natural chain unless they say otherwise; changes in a name come on top.
UniProt Q9BX95: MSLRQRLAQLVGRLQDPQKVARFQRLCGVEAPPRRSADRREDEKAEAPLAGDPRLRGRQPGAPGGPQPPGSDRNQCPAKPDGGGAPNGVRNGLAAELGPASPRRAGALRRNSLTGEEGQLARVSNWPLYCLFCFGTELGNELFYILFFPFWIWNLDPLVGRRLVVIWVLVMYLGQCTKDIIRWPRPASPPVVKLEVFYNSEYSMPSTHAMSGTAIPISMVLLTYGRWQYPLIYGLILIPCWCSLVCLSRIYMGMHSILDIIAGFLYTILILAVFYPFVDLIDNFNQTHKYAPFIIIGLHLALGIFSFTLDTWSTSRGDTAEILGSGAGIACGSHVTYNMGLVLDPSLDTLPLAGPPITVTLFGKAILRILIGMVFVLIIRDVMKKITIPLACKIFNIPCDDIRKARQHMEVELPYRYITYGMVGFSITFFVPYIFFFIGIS
UniProt P58004: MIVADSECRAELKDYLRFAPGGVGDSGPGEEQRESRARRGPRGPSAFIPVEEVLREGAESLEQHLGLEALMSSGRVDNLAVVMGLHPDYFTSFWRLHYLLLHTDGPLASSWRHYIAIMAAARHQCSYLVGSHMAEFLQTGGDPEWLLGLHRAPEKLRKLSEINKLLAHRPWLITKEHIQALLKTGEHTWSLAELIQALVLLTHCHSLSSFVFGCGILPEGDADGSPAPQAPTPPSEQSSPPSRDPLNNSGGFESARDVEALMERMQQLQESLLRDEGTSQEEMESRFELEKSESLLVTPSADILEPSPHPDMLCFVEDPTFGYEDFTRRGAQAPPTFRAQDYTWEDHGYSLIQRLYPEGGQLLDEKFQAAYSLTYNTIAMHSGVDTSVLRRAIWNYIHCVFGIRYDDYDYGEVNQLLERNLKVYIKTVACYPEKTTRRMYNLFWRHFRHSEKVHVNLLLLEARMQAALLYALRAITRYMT
UniProt Q9Y3L3: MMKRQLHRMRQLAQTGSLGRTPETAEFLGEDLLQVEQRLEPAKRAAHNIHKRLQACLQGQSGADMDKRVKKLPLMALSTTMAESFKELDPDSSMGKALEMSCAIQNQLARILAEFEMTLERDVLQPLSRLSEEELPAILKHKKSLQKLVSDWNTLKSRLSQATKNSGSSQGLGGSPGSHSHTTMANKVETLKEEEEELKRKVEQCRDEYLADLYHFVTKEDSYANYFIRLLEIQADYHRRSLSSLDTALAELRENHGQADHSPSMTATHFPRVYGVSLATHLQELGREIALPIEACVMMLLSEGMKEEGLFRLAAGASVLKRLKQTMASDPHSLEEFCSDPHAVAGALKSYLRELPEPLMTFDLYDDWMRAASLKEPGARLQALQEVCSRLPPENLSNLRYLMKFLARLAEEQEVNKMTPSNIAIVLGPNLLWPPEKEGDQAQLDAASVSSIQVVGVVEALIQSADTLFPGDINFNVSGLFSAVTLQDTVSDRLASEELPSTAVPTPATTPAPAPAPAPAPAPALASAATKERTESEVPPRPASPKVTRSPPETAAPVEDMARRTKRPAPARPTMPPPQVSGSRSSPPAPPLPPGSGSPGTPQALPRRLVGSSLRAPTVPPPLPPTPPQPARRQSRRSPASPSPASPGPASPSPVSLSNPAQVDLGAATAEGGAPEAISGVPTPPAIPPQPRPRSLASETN
UniProt Q8TBC3: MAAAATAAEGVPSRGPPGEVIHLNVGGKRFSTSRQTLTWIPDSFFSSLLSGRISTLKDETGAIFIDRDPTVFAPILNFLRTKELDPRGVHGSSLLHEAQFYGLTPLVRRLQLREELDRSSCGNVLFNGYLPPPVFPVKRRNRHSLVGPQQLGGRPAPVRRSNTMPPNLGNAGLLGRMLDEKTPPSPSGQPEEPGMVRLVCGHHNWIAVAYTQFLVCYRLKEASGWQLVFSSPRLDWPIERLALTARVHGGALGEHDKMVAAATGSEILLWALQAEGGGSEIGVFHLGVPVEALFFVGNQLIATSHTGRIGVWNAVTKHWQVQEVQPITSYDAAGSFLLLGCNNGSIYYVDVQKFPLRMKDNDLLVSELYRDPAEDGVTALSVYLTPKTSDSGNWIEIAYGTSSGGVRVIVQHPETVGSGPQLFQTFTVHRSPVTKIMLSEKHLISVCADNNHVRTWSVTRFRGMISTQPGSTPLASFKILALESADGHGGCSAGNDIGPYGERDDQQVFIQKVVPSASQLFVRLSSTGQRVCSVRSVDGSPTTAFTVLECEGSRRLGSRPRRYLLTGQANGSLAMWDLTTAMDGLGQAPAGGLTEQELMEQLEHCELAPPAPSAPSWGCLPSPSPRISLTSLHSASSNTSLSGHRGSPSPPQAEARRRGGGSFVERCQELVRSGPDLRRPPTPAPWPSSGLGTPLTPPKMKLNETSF
UniProt P29353: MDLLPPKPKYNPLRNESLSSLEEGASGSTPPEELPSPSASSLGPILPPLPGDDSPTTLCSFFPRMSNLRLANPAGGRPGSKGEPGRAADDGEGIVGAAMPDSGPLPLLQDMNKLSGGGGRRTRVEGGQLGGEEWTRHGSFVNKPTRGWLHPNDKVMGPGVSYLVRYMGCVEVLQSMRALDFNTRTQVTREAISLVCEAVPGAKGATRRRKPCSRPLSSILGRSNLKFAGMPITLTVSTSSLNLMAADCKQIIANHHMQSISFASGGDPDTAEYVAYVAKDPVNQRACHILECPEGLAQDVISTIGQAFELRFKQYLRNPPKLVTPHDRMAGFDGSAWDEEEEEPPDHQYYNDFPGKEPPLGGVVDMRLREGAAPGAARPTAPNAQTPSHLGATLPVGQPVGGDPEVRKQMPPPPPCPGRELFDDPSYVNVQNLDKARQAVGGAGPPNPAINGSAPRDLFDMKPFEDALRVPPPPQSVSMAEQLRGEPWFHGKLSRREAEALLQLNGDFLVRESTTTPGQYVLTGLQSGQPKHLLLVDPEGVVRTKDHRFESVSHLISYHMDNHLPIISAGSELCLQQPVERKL
UniProt Q9UP95: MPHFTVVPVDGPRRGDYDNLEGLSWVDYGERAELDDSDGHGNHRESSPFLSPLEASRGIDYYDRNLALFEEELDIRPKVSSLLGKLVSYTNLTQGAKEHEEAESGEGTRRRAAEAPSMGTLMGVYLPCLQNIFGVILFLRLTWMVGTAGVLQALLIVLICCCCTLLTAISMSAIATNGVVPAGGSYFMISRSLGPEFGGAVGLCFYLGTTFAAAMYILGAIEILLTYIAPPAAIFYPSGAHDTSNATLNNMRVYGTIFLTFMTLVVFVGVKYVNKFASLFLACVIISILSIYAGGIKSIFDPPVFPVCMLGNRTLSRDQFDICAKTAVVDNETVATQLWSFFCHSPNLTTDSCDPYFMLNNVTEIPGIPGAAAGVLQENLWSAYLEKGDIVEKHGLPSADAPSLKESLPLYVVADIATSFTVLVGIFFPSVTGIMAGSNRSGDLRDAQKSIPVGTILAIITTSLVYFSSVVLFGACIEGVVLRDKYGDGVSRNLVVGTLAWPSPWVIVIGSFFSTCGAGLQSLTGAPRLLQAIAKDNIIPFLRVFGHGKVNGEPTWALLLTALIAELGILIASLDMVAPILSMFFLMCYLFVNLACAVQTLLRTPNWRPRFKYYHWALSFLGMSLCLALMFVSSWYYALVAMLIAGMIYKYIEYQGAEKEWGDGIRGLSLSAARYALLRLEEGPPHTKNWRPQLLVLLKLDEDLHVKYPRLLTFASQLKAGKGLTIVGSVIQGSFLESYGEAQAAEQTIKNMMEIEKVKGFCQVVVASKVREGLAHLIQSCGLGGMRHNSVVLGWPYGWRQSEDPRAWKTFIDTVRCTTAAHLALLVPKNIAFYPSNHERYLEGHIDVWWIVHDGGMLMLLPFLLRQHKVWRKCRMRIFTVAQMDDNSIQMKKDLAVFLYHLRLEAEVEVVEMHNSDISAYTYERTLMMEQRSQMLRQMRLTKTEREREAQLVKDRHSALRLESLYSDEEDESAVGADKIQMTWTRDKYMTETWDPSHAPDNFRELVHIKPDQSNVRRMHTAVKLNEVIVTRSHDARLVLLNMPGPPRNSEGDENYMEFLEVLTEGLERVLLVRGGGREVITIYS
UniProt Q9Y3B4: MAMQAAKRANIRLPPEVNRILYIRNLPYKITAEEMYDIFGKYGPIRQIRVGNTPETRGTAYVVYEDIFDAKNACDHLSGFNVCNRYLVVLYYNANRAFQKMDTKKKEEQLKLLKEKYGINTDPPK
UniProt Q8N6T7, whole entry, looked up: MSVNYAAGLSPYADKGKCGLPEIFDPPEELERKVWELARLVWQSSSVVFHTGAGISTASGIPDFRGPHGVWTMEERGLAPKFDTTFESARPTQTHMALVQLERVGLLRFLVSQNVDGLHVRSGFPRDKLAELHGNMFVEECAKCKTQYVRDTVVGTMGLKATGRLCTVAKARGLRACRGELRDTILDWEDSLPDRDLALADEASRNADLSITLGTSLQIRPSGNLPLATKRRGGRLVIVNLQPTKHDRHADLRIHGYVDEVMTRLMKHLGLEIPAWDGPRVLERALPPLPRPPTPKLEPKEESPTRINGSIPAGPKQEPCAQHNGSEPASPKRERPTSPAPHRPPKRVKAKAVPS
UniProt Q0GE19: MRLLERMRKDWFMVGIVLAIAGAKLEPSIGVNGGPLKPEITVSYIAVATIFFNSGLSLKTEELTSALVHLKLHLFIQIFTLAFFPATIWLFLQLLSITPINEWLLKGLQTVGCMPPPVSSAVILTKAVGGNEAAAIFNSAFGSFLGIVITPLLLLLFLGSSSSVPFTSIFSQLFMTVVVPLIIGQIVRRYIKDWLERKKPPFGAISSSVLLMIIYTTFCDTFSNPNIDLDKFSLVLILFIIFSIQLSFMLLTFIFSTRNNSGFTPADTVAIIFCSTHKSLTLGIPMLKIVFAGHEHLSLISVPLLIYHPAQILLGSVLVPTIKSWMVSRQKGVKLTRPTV
UniProt Q9UJC5: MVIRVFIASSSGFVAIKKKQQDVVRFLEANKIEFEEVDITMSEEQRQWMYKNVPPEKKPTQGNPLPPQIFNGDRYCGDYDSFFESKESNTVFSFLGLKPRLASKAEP
UniProt Q9NRX5: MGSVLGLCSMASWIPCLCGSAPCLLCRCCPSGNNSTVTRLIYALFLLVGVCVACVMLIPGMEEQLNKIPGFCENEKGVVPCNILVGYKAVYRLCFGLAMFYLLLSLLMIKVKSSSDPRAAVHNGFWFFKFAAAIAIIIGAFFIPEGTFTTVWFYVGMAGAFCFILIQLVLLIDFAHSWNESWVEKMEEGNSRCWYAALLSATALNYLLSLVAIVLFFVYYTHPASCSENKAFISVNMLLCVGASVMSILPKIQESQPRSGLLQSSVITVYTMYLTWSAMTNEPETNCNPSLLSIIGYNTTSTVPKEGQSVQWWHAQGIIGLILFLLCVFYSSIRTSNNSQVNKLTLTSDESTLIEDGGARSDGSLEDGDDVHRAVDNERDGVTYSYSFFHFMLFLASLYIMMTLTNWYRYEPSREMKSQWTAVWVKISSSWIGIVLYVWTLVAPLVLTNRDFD
UniProt P05543: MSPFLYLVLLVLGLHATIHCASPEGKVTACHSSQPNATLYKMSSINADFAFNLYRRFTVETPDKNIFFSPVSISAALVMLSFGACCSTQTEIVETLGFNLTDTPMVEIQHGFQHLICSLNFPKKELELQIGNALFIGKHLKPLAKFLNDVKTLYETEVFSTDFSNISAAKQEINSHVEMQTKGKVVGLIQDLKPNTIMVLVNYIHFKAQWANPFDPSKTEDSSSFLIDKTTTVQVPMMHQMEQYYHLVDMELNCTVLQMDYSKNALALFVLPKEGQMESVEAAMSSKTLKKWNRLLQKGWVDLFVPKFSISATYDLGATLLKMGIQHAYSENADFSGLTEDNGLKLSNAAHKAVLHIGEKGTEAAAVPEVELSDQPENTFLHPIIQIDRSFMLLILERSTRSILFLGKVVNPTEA
UniProt Q15459: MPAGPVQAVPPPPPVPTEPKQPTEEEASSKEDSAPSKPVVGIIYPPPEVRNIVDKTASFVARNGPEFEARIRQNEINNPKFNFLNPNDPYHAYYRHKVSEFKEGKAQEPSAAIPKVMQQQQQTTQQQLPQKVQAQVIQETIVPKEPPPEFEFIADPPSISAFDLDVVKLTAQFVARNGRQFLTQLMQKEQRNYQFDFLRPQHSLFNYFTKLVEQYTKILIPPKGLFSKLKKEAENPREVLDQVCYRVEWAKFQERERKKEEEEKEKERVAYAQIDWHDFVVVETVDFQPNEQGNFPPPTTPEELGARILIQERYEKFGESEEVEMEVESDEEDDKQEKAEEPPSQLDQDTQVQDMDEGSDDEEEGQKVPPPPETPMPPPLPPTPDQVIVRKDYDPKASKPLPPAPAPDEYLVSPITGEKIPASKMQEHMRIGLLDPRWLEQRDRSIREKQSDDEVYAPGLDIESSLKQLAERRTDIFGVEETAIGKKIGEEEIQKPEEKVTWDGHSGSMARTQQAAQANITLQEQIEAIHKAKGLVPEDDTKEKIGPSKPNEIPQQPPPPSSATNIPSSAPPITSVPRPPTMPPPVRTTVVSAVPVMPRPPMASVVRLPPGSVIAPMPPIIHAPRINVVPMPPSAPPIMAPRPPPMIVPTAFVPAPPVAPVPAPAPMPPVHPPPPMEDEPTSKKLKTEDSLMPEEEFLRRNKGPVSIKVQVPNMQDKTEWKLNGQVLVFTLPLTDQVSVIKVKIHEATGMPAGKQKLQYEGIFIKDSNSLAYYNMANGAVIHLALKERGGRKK

Legend:
Experiment in all cases: log2 fold change, soluble protein after heating vs DMSO (PISA); higher = thermal stabilisation; K562 lysate, 10 uM; active = over 0.2 and 3.5 SD of the protein, either way, in both replicates (recomputed)
[1] = compound: C1=CC=C(C=C1)[C@H](COC2=CC3=C(C=C2)NC(=O)N3)NC(=O)C4=CC=CN(C4=O)CC5=CC(=C(C=C5)F)F
Method in brief: (§1)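 Dounce homogenisation of K562 pellets in PBS pH 7.4 with 1 mM MgCl2 produced a crude extract, used at 1 mg/mL protein. Exposure to 10 μM compound lasted 30 min, and aliquots were then heated for 3 min across 48°C-58°C, pooled and brought to 0.5% NP-40 at 4°C. The supernatant after 21,000xg for 90 min was quantified by TMTpro 16plex LC-MS/MS with channel sums equalised. Duplicate values are given as log-two fold change in thermal stability relative to solvent controls.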

[2] = compound: CC1=C(SC2=C1C(=N[C@H](C3=NN=C(N32)C)CC(=O)N)C4=CC=C(C=C4)Cl)C
Method in brief: as §1

[3] = compound: CC1=C2C(=CC=C1)N=C(N(C2=O)C3=CC=CC=C3C)CN4C=NC5=C(N=CN=C54)N
Method in brief: as §1

[4] = compound: Cc1sc2c(c1C)C(c1ccc(Cl)cc1)=N[C@@H](CC(=O)OC(C)(C)C)c1nnc(C)n1-2
Method in brief: as §1

[5] = compound: c1ccc([C@@H]2C[C@H]2NC2CCNCC2)cc1
Method in brief: as §1

Measured: log2 fold change

SGPP1 (UniProt Q9BX95)
inactive: [1] 0.093 | [2] 0.069 | [3] -0.002 | [4] -0.042 | [5] 0.061

SESN2 (UniProt P58004)
inactive: [1] -0.074 | [2] 0.01 | [3] -0.025 | [4] -0.004 | [5] -0.01

SERPINB6, A0A087X1N8
inactive: [1] 0.032 | [2] -0.04 | [3] -0.025 | [4] -0.012 | [5] -0.034

SH3BGRL3 (UniProt Q9H299)
inactive: [1] -0.015 | [2] -0.019 | [3] -0.007 | [4] -0.041 | [5] -0.041

SH3BP1 (UniProt Q9Y3L3)
inactive: [1] 0.011 | [2] -0.009 | [3] 0.093 | [4] 0.011 | [5] 0

SERPINI1 (UniProt Q99574)
inactive: [1] 0.067 | [2] -0.033 | [3] 0.031 | [4] -0.011 | [5] -0.021

SHKBP1 (UniProt Q8TBC3)
inactive: [1] 0.016 | [2] 0.02 | [3] 0.077 | [4] -0.027 | [5] 0.007

SGTA (UniProt O43765)
inactive: [1] -0.024 | [2] -0.051 | [3] -0.009 | [4] 0.014 | [5] 0.001

SGTB (UniProt Q96EQ0)
inactive: [1] -0.001 | [2] -0.059 | [3] 0.008 | [4] -0.046 | [5] 0.065

SHC1 isoform 6 (UniProt P29353)
inactive: [1] 0.019 | [2] 0.006 | [3] 0.056 | [4] 0.087 | [5] 0.25

SLC12A4 (UniProt Q9UP95)
inactive: [1] 0.1 | [2] 0.048 | [3] -0.078 | [4] 0.036 | [5] 0.054

SF3B6 (UniProt Q9Y3B4)
inactive: [1] 0.052 | [2] -0.032 | [3] -0.184 | [4] 0.014 | [5] 0

SLC12A6 (UniProt Q9UHW9)
inactive: [1] 0.006 | [2] 0.017 | [3] 0.017 | [4] 0.036 | [5] 0.008

SHPRH (UniProt Q149N8)
inactive: [1] -0.109 | [2] -0.037 | [3] 0.274 | [4] 0.061 | [5] 0.063

SIRT6 (UniProt Q8N6T7)
inactive: [1] 0.06 | [2] 0.045 | [3] -0.006 | [4] 0.102 | [5] -0.05

SLC11A2 isoform 3 (UniProt P49281)
inactive: [1] -0.081 | [2] -0.017 | [3] 0.016 | [4] -0.01 | [5] 0.003

SLC10A7 isoform 1 (UniProt Q0GE19)
inactive: [1] -0.033 | [2] 0.015 | [3] 0.015 | [4] 0.075 | [5] -0.13

SH3BGRL2 (UniProt Q9UJC5)
inactive: [1] 0.048 | [2] 0.085 | [3] -0.027 | [4] -0.001 | [5] 0.083

SFXN4 isoform 3 (UniProt Q6P4A7)
inactive: [1] -0.063 | [2] -0.016 | [3] 0.107 | [5] -0.089

SERINC1 (UniProt Q9NRX5)
inactive: [1] 0.086 | [2] -0.059 | [3] -0.021 | [4] -0.098 | [5] -0.116

SERPINA7 (UniProt P05543)
inactive: [1] -0.105 | [2] -0.11 | [3] 0.137 | [5] 0

SERPINC1 (UniProt P01008)
inactive: [1] 0.171 | [2] 0.044 | [3] 0.008 | [4] -0.071 | [5] -0.067

SH3KBP1 (UniProt Q96B97)
inactive: [1] -0.02 | [2] 0.055 | [4] -0.029 | [5] -0.03

SLAIN2 (UniProt Q9P270)
inactive: [1] 0.031 | [2] -0.031 | [3] 0.025 | [4] -0.011 | [5] -0.016

SF3A1 (UniProt Q15459)
inactive: [1] -0.004 | [2] 0.017 | [3] 0.011 | [4] 0 | [5] -0.037
